One may read the AC50 as the midpoint of the concentration-response curve, whichever way the signal moves. High values mean weaker potency, low ones greater potency.

The values below come from PubChem BioAssay AID2685 (National Center for Advancing Translational Sciences (NCATS), 2010).

The nature of the experiment: qHTS Assay for Lipid Storage Modulators in Drosophila S3 Cells.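 On cell number change: cells counted by Cell Tracker Red CMTPX staining in the red channel.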 As to conditions: BODIPY lipid droplet fluorescence, 18-24 h; for cell number change: measured here: cell count max response, cells fed with added oleic acid. In a few lines:
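Laser-scanning cytometry quantifies lipid droplet accumulation (500–530 nm total intensity; droplet/cell object ratio) in oleic acid-fed (400 uM added) Drosophila S3 cells treated with a concentration series. 20 uM Triacsin C defined 100% inhibition.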
(In general: In qHTS, concentration-response curves come from the screen itself.)

The mark [1] stands for this setting: measured here: lipid fluorescence (Fed channel) AC50, cells fed with added oleic acid.
The mark [2] stands for this setting: measured here: cell number channel AC50, cells fed with added oleic acid.

Structures are written as SMILES. The list shows a part of the results. Further columns of the screen follow, without active or inactive calls. The list favours compounds with an active or inconclusive main result. The note in brackets gives the kind of curve behind each potency; many fits are weak.

With `c1ccn(-c2ncnc3sc4c(c23)CCCC4)c1`, the cell number change is -2.53%. Further, the AC50 under setting [1] was 146 nM [falling, full curve]. In the case of `CCc1nnc(N/N=C/c2c(F)cccc2Cl)n1N`, the cell number change was -16%. Moreover, the half-maximal activity concentration (AC50) under setting [1] is 20600 nM [falling, partial curve, poor fit]. As for `COc1ccc(/C=C/C(=O)N(CC(C)C)CC(C)C)cc1Br`, the cell number change is -16.5%. For `CCOC(=O)N1CCN(S(=O)(=O)c2ccc(C(=O)N(CCN(C)C)c3nc4ccc(CC)cc4s3)cc2)CC1`, the cell number change amounted to 26.5%. For the same compound, the half-maximal activity concentration (AC50) under setting [1] is 259 nM [rising, partial curve, poor fit].

For the compound `COc1cc(C)ccc1OCc1cc(C(=O)N2CCC(c3ccc(F)cc3)C2)no1` (stereo not drawn), the cell number change is -8.96%. Under setting [1], the concentration at half-maximal activity (AC50) was 9200 nM [rising, partial curve]. For `O=C(Nc1ccccc1N1CCCCC1)c1ccc(-c2ccc(Cl)cc2)o1`, under setting [1], the AC50 is 8200 nM [falling, partial curve].

As to `Cc1ccc(CNC(=O)CCNC(=O)c2ccc(Br)o2)cc1`, the cell number change was -22.9%. For the same compound, under setting [2], the half-maximal activity concentration (AC50) is 146 nM [falling, full curve, poor fit]. The AC50 under setting [1] is 651 nM [falling, full curve, poor fit]. As for `CN(CCCOc1ccccc1Br)Cc1ccccc1`, the cell number change was -27.6%. Besides, the AC50 under setting [1] is 3660 nM [falling, single point].

Consider `CCCCCCCCOC(=O)C1=C(C)Nc2nnnn2C1c1cccs1` (stereo not drawn), for which the cell number change is -89.9%. The AC50 under setting [2] was 23100 nM [falling, single point]. Further, under setting [1], the AC50 is 29100 nM [falling, single point]. `CSc1nnc2ccc(-c3ccccn3)nn12`: the cell number change is -31.7%. For the same compound, the concentration at half-maximal activity (AC50) under setting [2] is 8200 nM [falling, partial curve, poor fit]. For the compound `CCCCC(CC)CNC(=O)c1cccs1` (stereo not drawn), the cell number change is -47.9%. The AC50 under setting [2] is 23100 nM [falling, single point].

With `COCCOC(=O)c1c(C)nc(SCC(=O)Nc2ccc(OC)cc2)c(C#N)c1-c1ccco1`, the cell number change is 2.84%.

Take `COc1ccc(C(=O)C2CCN(CC(=O)Nc3cc(C)cc(C)c3)CC2)cc1`: the cell number change was -2.52%. For the same compound, the half-maximal activity concentration (AC50) under setting [1] was 92 nM [rising, partial curve, poor fit]. As to `Cc1cc(NS(=O)(=O)c2ccc(NC(=O)/C=C/c3ccc(Br)cc3)cc2)no1`, the cell number change is -22.1%. Also, under setting [1], the concentration at half-maximal activity (AC50) is 3660 nM [rising, full curve]. `CCCCC1CCC(c2nc(-c3ccccn3)no2)CC1` (stereo not drawn): the cell number change is -53.5%. The AC50 under setting [2] is 14600 nM [falling, partial curve, poor fit]. Also, the AC50 under setting [1] is 1640 nM [falling, full curve, poor fit]. On to `CCOc1ccc(-n2c(C)cc(/C=N\NC(=O)CC(=O)NC3CCCCC3)c2C)cc1`, for which the cell number change turned out to be 13.4%. In addition, the AC50 under setting [2] is 3260 nM [rising, single point]. Consider `CN1CCN(C(=O)CCN2C(=O)/C(=C\c3ccc(Cl)cc3)SC2=S)CC1`, for which the cell number change is -11.6%. Turning to `CN1CCN(c2ccc(S(=O)(=O)N3CCCCC3)cc2NC(=O)c2ccc3ccccc3c2)CC1`, the cell number change was -33.6%. The AC50 under setting [2] was 29100 nM [falling, single point]. For the same compound, the AC50 under setting [1] is 206 nM [falling, full curve, poor fit]. Take `Cc1ccccc1NC(=O)CN(c1ccc(F)cc1)S(C)(=O)=O`: the cell number change is 8%. In addition, under setting [1], the half-maximal activity concentration (AC50) is 291 nM [rising, full curve].

As for `O=C1ON=C(c2ccccc2)/C1=C/c1ccc(-c2ccccc2[N+](=O)[O-])o1`, the cell number change is -36.2%. Besides, the concentration at half-maximal activity (AC50) under setting [2] is 146 nM [falling, full curve, poor fit]. Also, the half-maximal activity concentration (AC50) under setting [1] is 29100 nM [falling, single point]. With `COc1cccc(CCNC(=O)CCc2nnc(-c3ccc4c(c3)OCO4)o2)c1`, the cell number change was -1.77%. `CCn1c(Cn2nnc(-c3ccccc3)n2)nnc1SCC(=O)Nc1cccc(C(C)=O)c1`: the cell number change came out at 23.1%. The AC50 under setting [1] is 1460 nM [falling, partial curve]. `CC(=O)c1cccc(S(=O)(=O)N2CCCC(c3nc4c(nnn4Cc4ccccc4Cl)c(=O)[nH]3)C2)c1` (stereo not drawn): the cell number change was -2.42%. As for `COc1ccc(C)cc1NC(=O)NC(C)c1ccncc1` (stereo not drawn), the cell number change came out at 76.1%. On to `Cc1ccccc1OCC(=O)Nc1ccc2c(c1)OCCO2`, for which the cell number change worked out at 15.8%. In addition, the AC50 under setting [1] is 7310 nM [rising, partial curve]. Regarding `Cc1cc(N2CCCCC2)n2nc(C)c(-c3ccccc3)c2n1`, the cell number change is -15.6%. Also, under setting [1], the half-maximal activity concentration (AC50) was 731 nM [rising, single point].

Consider `CC(C)c1cc(NC(=O)c2ccccc2)cc(C(C)C)c1O`, for which the cell number change was -31%. Further, the half-maximal activity concentration (AC50) under setting [2] was 11600 nM [falling, partial curve]. Take `CSc1ccc(CN2CCN(C(=O)c3ccncc3)CC2)cc1`: the cell number change turned out to be 14.8%. For the same compound, the AC50 under setting [1] was 146 nM [rising, full curve, poor fit]. As for `Cc1ccc(OCC(=O)NNC(=O)C2CSC3(C)CCC(=O)N23)cc1` (stereo not drawn), the AC50 under setting [2] is 326 nM [rising, single point].

With `COc1cc(/C=C2\SC(=S)N(C(C(=O)O)c3ccccc3)C2=O)ccc1O` (stereo not drawn), the cell number change is -98.7%. Moreover, under setting [2], the concentration at half-maximal activity (AC50) is 2910 nM [falling, full curve]. In addition, the AC50 under setting [1] is 731 nM [falling, full curve]. For the compound `CC(=O)c1ccc(S(=O)(=O)N2CCN(CC(=O)Nc3ccc(Cl)c([N+](=O)[O-])c3)CC2)cc1`, under setting [1], the half-maximal activity concentration (AC50) was 18400 nM [falling, single point]. In the case of `O=S(=O)(O)c1cccc2c(N=Nc3ccc(O)c4ncccc34)cccc12`, the cell number change was -19.4%. Besides, the half-maximal activity concentration (AC50) under setting [2] is 116 nM [falling, full curve, poor fit]. Take `COc1ccc(/C(C)=N\Nc2nc(-c3ccc(Cl)cc3)cc(C(F)(F)F)n2)cc1OC`: the cell number change is -8.72%. The AC50 under setting [1] was 411 nM [rising, full curve, poor fit]. Turning to `COc1ccc(C2CC(=O)Oc3cc(O)cc(O)c32)cc1` (stereo not drawn), the AC50 under setting [2] is 731 nM [falling, single point].

With `CCOc1ccc(NC(=O)CN(C)C(=O)c2ccccc2OCCOc2ccccc2)cc1OCC`, the cell number change is -8.3%. The AC50 under setting [1] is 2310 nM [rising, single point].

As to `NC(=O)C1CCN(CCC(=O)Nc2ccc(F)c(F)c2)CC1`, the cell number change is 15.8%. In addition, under setting [2], the AC50 is 411 nM [rising, partial curve, poor fit]. For the compound `COc1cccc(OC)c1C(=O)N1CC(C)OC(C)C1` (stereo not drawn), the cell number change is -9.06%. The AC50 under setting [1] was 14600 nM [falling, single point]. With `Cc1cc(C)c(S(=O)(=O)NCC23C=CC(O2)C2C(=O)N(c4ccccc4)C(=O)C23)c(C)c1` (stereo not drawn), the cell number change was -80.2%. The AC50 under setting [2] is 29100 nM [falling, single point]. Moreover, under setting [1], the half-maximal activity concentration (AC50) was 29100 nM [falling, single point]. In the case of `CC(Oc1ccc(S(=O)(=O)N2CCCC2)cc1[N+](=O)[O-])C(=O)NC(C)c1ccccc1` (stereo not drawn), the cell number change was -14.5%. Besides, the AC50 under setting [1] is 2060 nM [falling, partial curve].

As for `Cc1cc(C(=O)CN2CCN(CC(=O)Nc3ccc(F)cc3)CC2)c(C)n1C1CC1`, the cell number change is 0.889%. For the same compound, under setting [1], the concentration at half-maximal activity (AC50) is 6510 nM [falling, single point]. For the compound `Cc1sc2ncn(CC(=O)NCCCN3CCC(C)CC3)c(=O)c2c1S(=O)(=O)N1CCC(C)CC1`, the cell number change is -8.55%. In the case of `O=C(O)CN1C(=O)/C(=C\c2ccc(OC(=O)c3ccco3)cc2)SC1=S`, the cell number change worked out at 24.3%. For the same compound, the half-maximal activity concentration (AC50) under setting [1] is 6510 nM [rising, single point]. With `O=C(Nc1ccccc1C(=O)N1CCOCC1)c1ccc(Cl)cc1`, the cell number change is -3.17%. Also, the AC50 under setting [1] is 100 nM [falling, full curve, poor fit]. As for `O=C(OCc1nnc(-c2ccccc2)o1)c1cc([N+](=O)[O-])ccc1Cl`, the cell number change amounted to 30.7%. Under setting [2], the concentration at half-maximal activity (AC50) was 4110 nM [rising, single point]. Moreover, the AC50 under setting [1] was 29100 nM [rising, single point]. With `COc1ccc(CCNC(=O)c2c(O)c3cccc4c3n(c2=O)CC4)cc1OC`, the cell number change was 14%. Also, the AC50 under setting [1] was 2590 nM [rising, full curve, poor fit].

On to `COc1ccc(/C=C/C(=O)C2CC2)cc1COc1cccc(C)c1C`, for which the cell number change is 19.7%. Also, under setting [2], the concentration at half-maximal activity (AC50) was 46.1 nM [rising, partial curve, poor fit]. Also, the half-maximal activity concentration (AC50) under setting [1] is 1640 nM [rising, partial curve, poor fit]. As for `COC(=O)Nc1cc(C(=O)c2ccc(Cl)cc2Cl)c[nH]1`, the cell number change was 17.5%. Under setting [1], the half-maximal activity concentration (AC50) was 32600 nM [rising, single point]. As for `CC(=O)c1ccc(OCc2cc(C(=O)N(C)C3CCOC3)no2)cc1` (stereo not drawn), the cell number change is -4.86%. For the same compound, the half-maximal activity concentration (AC50) under setting [1] is 259 nM [rising, full curve]. Consider `CC1CCCC(NC(=O)Nc2cccs2)C1C` (stereo not drawn), for which the cell number change amounted to 68.3%. Besides, the half-maximal activity concentration (AC50) under setting [2] was 11600 nM [rising, partial curve]. Also, the half-maximal activity concentration (AC50) under setting [1] was 6510 nM [rising, single point].

Consider `CCOC(=O)c1c(-c2ccc(C)cc2)csc1NC(=O)c1cccc(N2C(=O)CCC2=O)c1`, for which the cell number change was 6.51%. The concentration at half-maximal activity (AC50) under setting [1] was 11600 nM [falling, single point]. As to `COc1ccccc1N1C(=NC(=O)CCc2ccccc2)SC2CS(=O)(=O)CC21` (stereo not drawn), the cell number change worked out at 6.49%.

`COc1ccc(OC)c(NC(=O)CCc2nnc3ccc(NCc4ccco4)nn23)c1`: the cell number change is -23.5%. As to `CCc1ccc(CN(C)C(=O)C2CCC(=O)N(CCCN3CCCC3=O)C2)cc1` (stereo not drawn), the AC50 under setting [1] was 580 nM [rising, single point]. Take `Nc1nnnn1/N=C/c1cc(Cl)cc(Cl)c1OCc1ccc(Cl)cc1Cl`: the cell number change came to 5.6%. In the case of `O=C1CN(C(=O)CSc2nc(-c3ccccc3)cs2)c2ccccc2N1`, the cell number change was 25%. The concentration at half-maximal activity (AC50) under setting [1] is 2910 nM [rising, full curve, poor fit].

Turning to `CCCCc1nnc(NC(=O)CSc2nc(C)cc(=O)[nH]2)s1`, the cell number change came to 14.4%. Further, under setting [2], the AC50 is 1160 nM [falling, full curve, poor fit]. In addition, the AC50 under setting [1] was 130 nM [falling, full curve, poor fit]. On to `COc1cc2c(=O)n(CCCN3CCOCC3)c(=S)[nH]c2c(OC)c1OC`, for which the cell number change was -12.6%. The AC50 under setting [1] was 2910 nM [rising, single point]. Regarding `COc1ccc(C(OC(=O)c2ccco2)C(=O)NC2CCCC2)cc1` (stereo not drawn), the half-maximal activity concentration (AC50) under setting [1] was 25900 nM [rising, single point]. Regarding `Cc1cccc(C)c1NC(=O)C(C)c1ccc(-c2ccccc2)c(F)c1` (stereo not drawn), the cell number change was -21.5%. Further, under setting [1], the concentration at half-maximal activity (AC50) was 1640 nM [rising, partial curve].
